Source: PMC11729874, “How J-chain ensures the assembly of immunoglobulin IgM pentamers” (The EMBO Journal, 2024)
Substitutions are numbered along the chain they refer to. Names and notes keep the numbering of the source. These are yes or no findings as the source states them, for the method shown. Some results given as binding are weak or reduced against the parent protein; the word gives no strength. For some of these results: Sequences can lack the tags named with a protein.

T1: J-chain (JC), expressed in transfected cells (UniProt P01592)
T1 sequence: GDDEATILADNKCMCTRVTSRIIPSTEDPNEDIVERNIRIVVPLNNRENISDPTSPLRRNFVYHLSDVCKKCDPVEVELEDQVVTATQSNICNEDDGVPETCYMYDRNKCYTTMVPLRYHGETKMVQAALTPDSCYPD

B1: wild-type Halo tagged ERp44 (H-ERp44) (protein, UniProt Q9BS26 30-406)
chain: EITSLDTENIDEILNNADVALVNFYADWCRFSQMLHPIFEEASDVIKEEFPNENQVVFARVDCDQHSDIAQRYRISKYPTLKLFRNGMMMKREYRGQRSVKALADYIRQQKSDPIQEIRDLAEITTLDRSKRNIIGYFEQKDSDNYRVFERVANILHDDCAFLSAFGDVSKPERYSGDNIIYKPPGHSAPDMVYLGAMTNFDVTYNWIQDKCVPLVREITFENGEELTEEGLPFLILFHMKEDTESLEIFQNEVARQLISEKGTINFLHADCDKFRHPLLHIQKTPADCPVIAIDSFRHMYVFGDFKDVLIPGKLKQFVFDLHSGKLHREFHHGPDPTDTAPGEQAQDVASSPPESSFQKLAPSEYRYTLLRDRDEL
B2: J-chain (JC), expressed in transfected cells (protein, UniProt P01592 22-159)
chain: T1 sequence
B3: murine Joining Chain wild type, recombinant (natural protein, mouse)
chain: MGDDEATILADNKCMCTRVTSRIIPSTEDPNEDIVERNIRIVVPLNNRENISDPTSPLRRNFVYHLSDVCKKCDPVEVELEDQVVTATQSNICNEDDGVPETCYMYDRNKCYTTMVPLRYHGETKMVQAALTPDSCYPD
notes: methionine added at position 1; murine joining chain (J chain), G22-D159 of the precursor; Heterogeneous native and non-native disulfides; largely unstructured by CD; also called JC; J chain
B4: H-ERp44 C29S (protein, UniProt Q9BS26 30-406)
chain: B1 chain with C29S

Tests used:
[1] = target: T1, J-chain (JC), expressed in transfected cells; assay: nonreducing SDS-PAGE and western blot of covalent assemblies; HeLa-ERp44KO transfected with JC variants, H-Cµ234tp and/or H-ERp44 variants; RIPA lysates with 10 mM NEM and supernatants; Halo ligands, anti-JC, anti-ERp44, anti-µ
[2] = target: murine Joining Chain wild type, recombinant (mouse) (UniProt P01592); assay: SEC; analytical SE-HPLC, Superdex 200 Increase 10/300, PBS pH 7.4, 25 °C; 1 mg/mL Cµ4tp (DTT removed) and/or 0.5 mg/mL J chain (if not stated otherwise) incubated 24 h at room temperature; both purified

Binder | binding [1] | binding [2]
B1 | binds | 
B2 | binds | 
B3 |  | binds
B4 | no binding | 
